{"sequences": {"note": "Chains of the proteins cited; added tags and fusions are not shown.", "UniProt Q13546": "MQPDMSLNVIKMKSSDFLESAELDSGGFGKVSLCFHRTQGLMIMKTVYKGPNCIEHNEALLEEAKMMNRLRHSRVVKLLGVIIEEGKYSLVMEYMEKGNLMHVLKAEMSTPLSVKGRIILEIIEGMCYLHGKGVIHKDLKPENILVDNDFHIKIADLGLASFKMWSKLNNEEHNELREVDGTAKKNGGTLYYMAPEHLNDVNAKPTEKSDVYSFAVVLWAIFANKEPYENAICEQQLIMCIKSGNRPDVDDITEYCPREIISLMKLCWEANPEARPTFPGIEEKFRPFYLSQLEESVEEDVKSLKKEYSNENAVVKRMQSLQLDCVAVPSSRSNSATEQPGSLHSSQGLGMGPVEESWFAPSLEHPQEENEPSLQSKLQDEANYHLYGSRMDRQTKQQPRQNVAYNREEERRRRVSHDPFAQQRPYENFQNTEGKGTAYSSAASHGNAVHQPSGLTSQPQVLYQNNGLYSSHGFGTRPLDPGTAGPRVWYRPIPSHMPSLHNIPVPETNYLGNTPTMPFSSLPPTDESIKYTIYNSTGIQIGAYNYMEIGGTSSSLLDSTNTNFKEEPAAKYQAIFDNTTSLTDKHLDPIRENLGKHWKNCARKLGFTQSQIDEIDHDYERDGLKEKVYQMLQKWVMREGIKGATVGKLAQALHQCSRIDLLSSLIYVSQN", "UniProt Q9Y572": "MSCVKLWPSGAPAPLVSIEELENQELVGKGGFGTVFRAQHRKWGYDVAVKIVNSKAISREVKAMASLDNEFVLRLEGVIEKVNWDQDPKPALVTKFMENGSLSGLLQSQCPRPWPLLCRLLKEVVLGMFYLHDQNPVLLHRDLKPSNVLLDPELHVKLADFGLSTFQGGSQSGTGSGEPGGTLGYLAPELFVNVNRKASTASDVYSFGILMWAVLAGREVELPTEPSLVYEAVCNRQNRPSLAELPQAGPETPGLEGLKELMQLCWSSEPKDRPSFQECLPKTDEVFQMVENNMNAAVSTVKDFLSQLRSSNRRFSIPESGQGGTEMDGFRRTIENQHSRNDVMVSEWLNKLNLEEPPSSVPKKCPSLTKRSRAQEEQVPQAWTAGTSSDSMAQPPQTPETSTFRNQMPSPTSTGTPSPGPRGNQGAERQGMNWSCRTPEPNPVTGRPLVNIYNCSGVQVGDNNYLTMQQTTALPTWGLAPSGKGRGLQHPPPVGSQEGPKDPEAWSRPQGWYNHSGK"}, "source": "paper PMC6482197", "about": "“Inhibition of HtrA2 alleviated dextran sulfate sodium (DSS)-induced colitis by preventing necroptosis of intestinal epithelial cells” (Cell Death & Disease, 2019)", "biological_target": "RIPK1 (human (endogenous in HT-29)) (UniProt Q13546)", "assay": "co-IP; immunoprecipitation with anti-RIPK1 antibody, then immunoblotting; HT-29-shNC or HT-29-shHtrA2 cells stimulated with T/S/Z for indicated times", "note": "These are yes or no findings as the source states them, for the method shown. Binding seen in cells or lysates may run through a third protein. Some binding calls cover weakened binding; strength is not graded here."}
{"substance": "RIPK3 (from UniProt Q9Y572 1-518)", "values": [{"measurement": "binding", "value": "binds"}]}
